The other results are listed elsewhere or left out. Further columns of the screen follow, without active or inactive calls. The list favours compounds with an active or inconclusive main result. Words in brackets tell the shape of the fitted curve; partial curves, single points and poor fits give uncertain potencies.

This test in a line: qHTS Assay for Lipid Storage Modulators in Drosophila S3 Cells.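 As to cell number change: cells counted by Cell Tracker Red CMTPX staining in the red channel.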 The following applies: BODIPY lipid droplet fluorescence, 18-24 h; for cell number change: measured here: cell count max response, cells fed with added oleic acid. The gist of the method: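 Drosophila S3 cells got compounds at several concentrations plus oleic acid (400 uM solution). Laser-scanning cytometry with 488 nm excitation read lipid droplets at 500-530 nm and cells at 575-640 nm. Percent activity was relative to 20 uM Triacsin C.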

The mark [1] stands for this setting: measured here: cell number channel AC50, cells fed with added oleic acid.
Where [2] appears, read: measured here: lipid fluorescence (Fed channel) AC50, cells fed with added oleic acid.

As for `CCOC(=O)C1CCCCN1S(=O)(=O)c1ccc2c(c1)CC(C)N2C(=O)C1CCC1` (stereo unspecified), the cell number change worked out at 23.7%.

For the molecule `COc1ccc(OC)c(/C=C/C(=O)Nc2ccc(OC)nc2)c1`, the cell number change stood at 56.2%. For the same molecule, the AC50 (as a rule, the concentration giving half of the maximal activity seen) under setting [1] was 29.1 µM [rising, single point]. In addition, the AC50 under setting [2] was 6.51 µM [rising, single point].

Turning to `CC1=[N+](C)N(c2ccccc2)C(=O)C1N=Cc1ccc(Cl)cc1` (stereo unspecified), the cell number change is -41.5%. Also, the AC50 under setting [1] is 1.84 µM [falling, partial curve, poor fit].

For the molecule `Cc1cccc(Cc2c(C)nc3c(C(=O)NCc4ccco4)cnn3c2C)c1`, the cell number change is -11.1%. Also, the AC50 under setting [2] is 14.6 µM [falling, partial curve].

As to `Cc1ccc(NC(C)c2cc(Cl)ccc2O)cc1` (stereo unspecified), the concentration at half-maximal activity (AC50) under setting [1] is 5.8 µM [rising, single point].

Consider `O=C1c2ccccc2C(=O)C12OC2c1cccc2ccccc12` (stereo unspecified), for which the cell number change is -19.8%. Moreover, the AC50 under setting [2] is 29.1 µM [falling, single point].

In the case of `COc1cc(NS(=O)(=O)c2ccc(F)cc2)c(OC)cc1NC(=O)C1CC1`, the cell number change is 6.42%. Also, the AC50 under setting [2] is 2.31 µM [rising, full curve].

As for `Cc1cc(C(=O)O)ccc1NCc1cccnc1`, the cell number change is 1.93%. Besides, under setting [2], the AC50 is 0.58 µM [rising, single point].

Turning to `COc1ccc(C(=O)NCCN2CCOCC2)cc1[N+](=O)[O-]`, the cell number change was 47.3%. Moreover, the AC50 under setting [1] was 23.1 µM [rising, single point]. The AC50 under setting [2] is 20.6 µM [rising, partial curve].

For `CC(C)N(Cc1ccccc1)C(=O)COC(=O)c1ccc2ncsc2c1`, the cell number change is -7.43%. Also, the concentration at half-maximal activity (AC50) under setting [2] is 20.6 µM [rising, single point].

As to `CCc1cc(C(=O)N(C)CC(=O)N(CC(C)C)c2c(N)n(CC(C)C)c(=O)[nH]c2=O)sc1C`, the cell number change is -14.4%. Besides, the AC50 under setting [2] was 6.51 µM [falling, single point].

As to `O=c1c2ccccc2nc(COc2ccccc2)n1/N=C/c1c[nH]c2ccccc12`, the cell number change was -30.8%. For the same molecule, under setting [1], the AC50 is 11.6 µM [falling, partial curve, poor fit]. In addition, under setting [2], the AC50 was 18.4 µM [falling, partial curve].

As for `CCC(C(=O)OCC(=O)Nc1ccc(C)c(S(=O)(=O)N2CCOCC2)c1)c1ccccc1` (stereo unspecified), the cell number change was -33.6%. The AC50 under setting [1] is 16.4 µM [falling, partial curve, poor fit].

Turning to `Cc1ccc(NC(=O)COC(=O)c2cccc3c2C(=O)c2ccccc2C3=O)c(C)c1`, the cell number change was -10.7%.

`CCCc1cc(NCCN(C)C)n2c(nc3ccccc32)c1C#N`: the cell number change is 20.2%.

Turning to `Cc1ccc(S(=O)(=O)N2CCN(Cc3cc(=O)n4ccccc4n3)CC2)cc1C`, the cell number change was -8.04%.

`CC(C)(C)NC(=O)NC(=O)CSc1nncs1`: the AC50 under setting [1] is 0.00517 µM [falling, full curve, poor fit].
